Some results were stated once for a whole list of compounds, not compound by compound.
Biological target: HLA-A*02:01 (Homo sapiens, UniProt P04439, D140Y/D185E/D98H/E176V/E277Q/G131W/G231S/I119V/I121R/I166T/I218V/L300P/L318F/N151K/N90K/P208A/P217A/Q86G/Q94H/R138H/R169H/T345S)
Experiment: ProImmune REVEAL binding assay, HLA-A*02:01
Conditions: normalized to positive control peptide = 100

Which “binding score (REVEAL)” value does the source give for IIKPQNTYCV [hTERT732-741] here?
Its value is “above 20”.

With IKPQNTYCV [hTERT733-741] as the sequence, how does the “binding score (REVEAL)” value read?
The value was “above 20”.

How did the “binding score (REVEAL)” value turn out when SIIKPQNTYC [hTERT731-740] was run?
The value was “above 20”.
